Source: paper PMC5143477
Results are given in words; binding and its absence hold for the method and conditions named. Some results given as binding are weak or reduced against the parent protein; the word gives no strength. Where a sequence is shown, tags or fusion partners need not be part of it.

Molecular target: L6 TIR domain (residues 29-233), yeast two-hybrid fusions (flax) (UniProt Q40253)
Experiment: two-hybrid; yeast AH109 co-transformed with prey (GAL4-AD) and bait (GAL4-BD) vectors; growth on CSM-Trp-Leu-His + 5 mM 3-AT (HIS3 reporter)

B1: L6 TIR domain (residues 29-233), yeast two-hybrid fusions (domain or fragment, UniProt Q40253 29-233)
chain: KDSIVNDDDDSTSEVDAISDSTNPSGSFPSVEYEVFLSFRGPDTREQFTDFLYQSLRRYKIHTFRDDDELLKGKEIGPNLLRAIDQSKIYVPIISSGYADSKWCLMELAEIVRRQEEDPRRIILPIFYMVDPSDVRHQTGCYKKAFRKHANKFDGQTIQNWKDALKKVGDLKGWHIGKNDKQGAIADKVSADIWSHISKENLILE
  binding: binds
